# Values from PubChem BioAssay AID1224828 (NIAID, 2016).
# Aim: 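Knock-downs that increase or decrease LPS-induced p65 nuclear translocation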 (primary screen)
# Cell system: mouse RAW264.7 G9 macrophage reporter cells (GFP-p65, Tnf promoter-mCherry)
# Reagents: siRNA pool against mouse genes, 100 nM
# Timing: 2 days siRNA transfection, then 40 min LPS before fixation
# Challenge: LPS (Salmonella minnesota R595) at 10 ng/ml
# Detection: 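Imaged p65 nuclear translocation ratio, normalised to the plate median, converted to robust z-scores and averaged across two replicates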
# Scale: p65 translocation robust z-score: higher = more nuclear NF-kappaB p65 after LPS than the plate median; nuclear/cytoplasmic p65 ratio: higher = more nuclear NF-kappaB p65
# Call rule: 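Active if robust z is above 3.3 (negative regulators) or below -1.56, the Tlr4 control median (positive regulators); activity score 50 or more; control wells not called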
# Meaning of the calls: active = hit (p65 shift raised or lowered); inactive = no clear change
# Here is one part, drawn at random, of about 17,000 reagents. 762 of them (4.5%) were called active. 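Active calls include both raised and lowered p65 entry, mostly lowered; wells with fewer than 50 cells lack a z-score.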 Raw values are not corrected between plates. Unmarked entries are inactive. Reagents against one gene are numbered here. Reagent sequences are not shown.
Target gene,pool no.,p65 translocation robust z-score,"nuclear/cytoplasmic p65 ratio, rep 1","nuclear/cytoplasmic p65 ratio, rep 2",low cell count flag
Upk3b (uroplakin 3B),1,0.41,1.5,1.23,enough cells to score
"Rab3b (RAB3B, member RAS oncogene family)",1,-0.47,1.58,1.33,enough cells to score
Frzb (frizzled-related protein),1,-0.68,1.31,1.32,enough cells to score
Rasal2 (RAS protein activator like 2),1,-1.07,1.43,1.47,enough cells to score
Rasal2 (RAS protein activator like 2),2,0.64,1.46,1.69,enough cells to score
Stk11ip (serine/threonine kinase 11 interacting protein),1,-1.33,1.34,0.97,enough cells to score
Rad50 (RAD50 double strand break repair protein),1,0.34,1.61,1.53,enough cells to score
Ctsm (cathepsin M),1,-0.8,1.41,1.71,enough cells to score
Cpa5 (carboxypeptidase A5),1,-0.47,1.44,1.29,enough cells to score
Spaca7b (sperm acrosome associated 7B),1,,1.48,1.47,fewer than 50 cells per well; well left out of scoring
Glipr1 (GLI pathogenesis related 1),1,-0.97,1.39,1.18,enough cells to score
"Myh10 (myosin, heavy polypeptide 10, non-muscle)",1,-0.11,1.8,1.54,enough cells to score
"Muc6 (mucin 6, gastric)",1,0.3,1.77,1.69,enough cells to score
Rpl10a (ribosomal protein L10A),1,,1.27,1.19,fewer than 50 cells per well; well left out of scoring
Tcam1 (testicular cell adhesion molecule 1),1,1.02,1.5,1.12,enough cells to score
"Klra12 (killer cell lectin-like receptor subfamily A, member 12)",1,-0.7,1.42,1.26,enough cells to score
Cenatac (centrosomal AT-AC splicing factor),1,2.49,1.69,1.93,enough cells to score
Mtmr9 (myotubularin related protein 9),1,3.41 (active),1.95,1.72,enough cells to score
"Psmc4 (proteasome (prosome, macropain) 26S subunit, ATPase, 4)",1,,1.51,1.26,fewer than 50 cells per well; well left out of scoring
Cimip2c (ciliary microtubule inner protein 2C),1,1.73,1.54,1.64,enough cells to score
Gabrb1 (gamma-aminobutyric acid type A receptor subunit beta 1),1,-1.29,1.23,1.24,enough cells to score
Trim8 (tripartite motif-containing 8),1,-0.7,1.43,1.39,enough cells to score
"Cyp1b1 (cytochrome P450, family 1, subfamily b, polypeptide 1)",1,0.42,1.59,1.38,enough cells to score
"Tnfrsf1a (tumor necrosis factor receptor superfamily, member 1a)",1,,1.49,1.45,fewer than 50 cells per well; well left out of scoring
Spz1 (spermatogenic leucine zipper 1),1,0.16,1.55,1.25,enough cells to score
"Tas2r114 (taste receptor, type 2, member 114)",1,,1.36,1.27,fewer than 50 cells per well; well left out of scoring
Nop58 (NOP58 ribonucleoprotein),1,0.32,1.77,1.57,enough cells to score
5330439B14Rik (RIKEN cDNA 5330439B14 gene),1,-0.36,1.38,1.35,enough cells to score
Sap30 (Sin3A associated protein 30),1,3.02,2,1.89,enough cells to score
Tsks (testis-specific serine kinase substrate),1,-0.04,1.69,1.37,enough cells to score
"Pcdhgb1 (protocadherin gamma subfamily B, 1)",1,-0.08,1.43,1.14,enough cells to score
Thada (thyroid adenoma associated),1,0.71,1.55,1.54,enough cells to score
Thada (thyroid adenoma associated),2,0.63,1.49,1.66,enough cells to score
"Siva1 (SIVA1, apoptosis-inducing factor)",1,-0.27,1.53,1.5,enough cells to score
Egr4 (early growth response 4),1,0.12,1.53,1.34,enough cells to score
"Rnft2 (ring finger protein, transmembrane 2)",1,0.8,1.56,2.13,enough cells to score
Tdrp (testis development related protein),1,-1.53,1.21,1.26,enough cells to score
Senp3 (SUMO/sentrin specific peptidase 3),1,,1.38,1.28,fewer than 50 cells per well; well left out of scoring
Pira6 (paired-Ig-like receptor A6),1,0.23,1.42,1.23,enough cells to score
Ago1 (argonaute RISC catalytic subunit 1),1,-0.16,1.5,1.29,enough cells to score
Rph3al (rabphilin 3A-like (without C2 domains)),1,-1.21,1.24,1.1,enough cells to score
Or1e1c (olfactory receptor family 1 subfamily E member 1C),1,1.23,1.69,1.65,enough cells to score
"Clec7a (C-type lectin domain family 7, member a)",1,-1.07,1.46,1.59,enough cells to score
Pwwp3b (PWWP domain containing 3B),1,0.61,1.34,1.63,enough cells to score
"Clns1a (chloride channel, nucleotide-sensitive, 1A)",1,-0.07,1.61,1.74,enough cells to score
Cfap263 (cilia and flagella associated protein 263),1,,1.22,1.17,fewer than 50 cells per well; well left out of scoring
"Tas2r139 (taste receptor, type 2, member 139)",1,0.53,1.59,1.21,enough cells to score
Cfap161 (cilia and flagella associated protein 161),1,,1.26,1.16,fewer than 50 cells per well; well left out of scoring
Trpt1 (tRNA phosphotransferase 1),1,,1.48,1.22,fewer than 50 cells per well; well left out of scoring
"Rab27b (RAB27B, member RAS oncogene family)",1,-0.5,1.46,1.58,enough cells to score
Dnaja2 (DnaJ heat shock protein family (Hsp40) member A2),1,,1.49,1.34,fewer than 50 cells per well; well left out of scoring
Lcn9 (lipocalin 9),1,0.22,1.5,1.53,enough cells to score
Snupn (snurportin 1),1,0.88,1.64,1.64,enough cells to score
"Atg4a (autophagy related 4A, cysteine peptidase)",1,0.63,1.61,1.68,enough cells to score
Inha (inhibin alpha),1,,1.47,1.26,fewer than 50 cells per well; well left out of scoring
"Grik2 (glutamate receptor, ionotropic, kainate 2 (beta 2))",1,1.37,1.52,1.64,enough cells to score
Angptl4 (angiopoietin-like 4),1,-0.65,1.56,1.49,enough cells to score
Zfp810 (zinc finger protein 810),1,-0.79,1.47,1.71,enough cells to score
B930095G15Rik (RIKEN cDNA B930095G15 gene),1,1.35,1.75,2.1,enough cells to score
